Data as given in PubChem BioAssay AID1259425 (University of Nebraska Medical Center, 2018)
Shown is one part, drawn at random, of about 14,000 deposited reagents. Further read-outs or replicates are left out here. Not given: the time to read-out.

Screen: 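Find knockdowns that reproduce the gene expression pattern seen when KSR1 is lost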 (primary screen)
Cells: HCT116 human colon cancer cells
Reagent: siRNA pool against human genes, 50 nM siRNA
Measurement: 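After 50 nM siRNA pool, branched-DNA assay measures six marker transcripts per well, minus blank, normalised to the geometric mean of two housekeeping transcripts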
Reading the numbers: BNIP3L mRNA: higher = more BNIP3L transcript after knockdown; NDRG1 mRNA: higher = more NDRG1 transcript after knockdown; BNIP3 mRNA: higher = more BNIP3 transcript after knockdown; ALDOC mRNA: higher = more ALDOC transcript after knockdown

gene | BNIP3L mRNA, set 1 | NDRG1 mRNA, set 1 | BNIP3 mRNA, set 1 | ALDOC mRNA, set 1
TXK (TXK tyrosine kinase) | 0.126 | 0.0955 | 0.335 | 0.00356
SEC13 (SEC13 homolog, nuclear pore and COPII component) | 0.214 | 0.223 | 0.31 | 0.026
CD163L1 (CD163 molecule like 1) | 0.0867 | 0.178 | 0.272 | 0.0308
RABL6 (RAB, member RAS oncogene family like 6) | 0.127 | 0.256 | 0.31 | 0.017
PPP2CA (protein phosphatase 2 catalytic subunit alpha) | 0.081 | 0.132 | 0.264 | 0.0121
MAPKAP1 (MAPK associated protein 1) | 0.0748 | 0.126 | 0.207 | 0.023
MRPL44 (mitochondrial ribosomal protein L44) | 0.0997 | 0.21 | 0.276 | 0.018
PSIP1 (PC4 and SRSF1 interacting protein 1) | 0.0829 | 0.318 | 0.399 | 0.0171
CAV2 (caveolin 2) | 0.149 | 0.0946 | 0.286 | 0.0337
ACTN4 (actinin alpha 4) | 0.167 | 0.202 | 0.333 | 0.0237
ZNF8 (zinc finger protein 8) | 0.0371 | 0.132 | 0.223 | 0.0072
SRF (serum response factor) | 0.0761 | 0.123 | 0.346 | 0.00369
NTS (neurotensin) | 0.176 | 0.0718 | 0.545 | 0.0628
IL17B (interleukin 17B) | 0.0745 | 0.124 | 0.318 | 0.0707
ZNF394 (zinc finger protein 394) | 0.382 | 0.329 | 0.377 | 0.12
ENTPD3 (ectonucleoside triphosphate diphosphohydrolase 3) | 0.0821 | 0.121 | 0.234 | 0.0333
CNPY2 (canopy FGF signaling regulator 2) | 0.104 | 0.203 | 0.305 | 0.0438
IL22RA2 (interleukin 22 receptor subunit alpha 2) | 0.0493 | 0.109 | 0.199 | 0.00828
ALOX15 (arachidonate 15-lipoxygenase) | 0.121 | 0.631 | 0.372 | 0.0415
GJA4 (gap junction protein alpha 4) | 0.0971 | 0.664 | 0.467 | 0.00887
GALNT7 (polypeptide N-acetylgalactosaminyltransferase 7) | 0.123 | 0.0787 | 0.233 | 0.00997
AP2A1 (adaptor related protein complex 2 subunit alpha 1) | 0.138 | 0.196 | 0.261 | 0.0843
MGAT1 | 0.115 | 0.348 | 0.252 | 0.0287
GDNF (glial cell derived neurotrophic factor) | 0.0863 | 0.173 | 0.307 | 0.0178
DHX38 (DEAH-box helicase 38) | 0.0341 | 0.0964 | 0.163 | 0.0158
CDH26 (cadherin 26) | 0.0594 | 0.137 | 0.231 | 0.0384
RPS6KA3 (ribosomal protein S6 kinase A3) | 0.143 | 0.199 | 0.222 | 0.0103
NOL10 (nucleolar protein 10) | 0.0615 | 0.258 | 0.215 | 0.039
TARDBP (TAR DNA binding protein) | 0.0789 | 0.14 | 0.327 | 0.00696
UBB (ubiquitin B) | 0.263 | 0.413 | 0.311 | 0.188
ODR4 (odr-4 GPCR localization factor homolog) | 0.101 | 0.491 | 0.221 | 0.0125
UQCC1 (ubiquinol-cytochrome c reductase complex assembly factor 1) | 0.109 | 0.264 | 0.277 | 0.059
NUTF2 (nuclear transport factor 2) | 0.0527 | 0.15 | 0.238 | 0.0304
EVX1 (even-skipped homeobox 1) | 0.184 | 0.215 | 0.465 | 0.0223
KIFAP3 (kinesin associated protein 3) | 0.097 | 0.141 | 0.326 | 0.0142
CCDC9 (coiled-coil domain containing 9) | 0.153 | 0.933 | 0.648 | 0.00705
HNF1B (HNF1 homeobox B) | 0.0869 | 0.15 | 0.291 | 0.00967
DNAJB4 (DnaJ heat shock protein family (Hsp40) member B4) | 0.258 | 0.305 | 0.302 | 0.0281
PAX5 (paired box 5) | 0.0978 | 0.058 | 0.197 | 0.00893
EIF4B (eukaryotic translation initiation factor 4B) | 0.0396 | 0.213 | 0.33 | 0.00948
SRPRB (SRP receptor subunit beta) | 0.107 | 0.0758 | 0.406 | 0.0346
KCNA2 (potassium voltage-gated channel subfamily A member 2) | 0.15 | 0.154 | 0.334 | 0.0213
ALG1 (ALG1 chitobiosyldiphosphodolichol beta-mannosyltransferase) | 0.258 | 0.308 | 0.31 | 0.042
KCTD9 (potassium channel tetramerization domain containing 9) | 0.111 | 0.168 | 0.304 | 0.0179
RO60 (Ro60, Y RNA binding protein) | 0.0867 | 0.268 | 0.387 | 0.107
TMEM230 (transmembrane protein 230) | 0.101 | 0.113 | 0.216 | 0.0228
SLCO4A1 | 0.04 | 0.119 | 0.27 | 0.00532
POLR2L (RNA polymerase II, I and III subunit L) | 0.0826 | 0.872 | 0.517 | 0.0629
IFNG (interferon gamma) | 0.107 | 0.121 | 0.186 | 0.0148
MAPKAPK5-AS1 (MAPKAPK5 antisense RNA 1) | 0.0941 | 0.176 | 0.444 | 0.025

Entries listed so far whose target name starts with S or s:
gene | BNIP3L mRNA, set 1 | NDRG1 mRNA, set 1 | BNIP3 mRNA, set 1 | ALDOC mRNA, set 1
SEC13 (SEC13 homolog, nuclear pore and COPII component) | 0.214 | 0.223 | 0.31 | 0.026
SRF (serum response factor) | 0.0761 | 0.123 | 0.346 | 0.00369
SRPRB (SRP receptor subunit beta) | 0.107 | 0.0758 | 0.406 | 0.0346
SLCO4A1 | 0.04 | 0.119 | 0.27 | 0.00532
